The values below come from article doi:10.64898/2025.12.30.697005.

Chains of the proteins cited; added tags and fusions are not shown. Residues count along the entry.
UniProt Q96CH1: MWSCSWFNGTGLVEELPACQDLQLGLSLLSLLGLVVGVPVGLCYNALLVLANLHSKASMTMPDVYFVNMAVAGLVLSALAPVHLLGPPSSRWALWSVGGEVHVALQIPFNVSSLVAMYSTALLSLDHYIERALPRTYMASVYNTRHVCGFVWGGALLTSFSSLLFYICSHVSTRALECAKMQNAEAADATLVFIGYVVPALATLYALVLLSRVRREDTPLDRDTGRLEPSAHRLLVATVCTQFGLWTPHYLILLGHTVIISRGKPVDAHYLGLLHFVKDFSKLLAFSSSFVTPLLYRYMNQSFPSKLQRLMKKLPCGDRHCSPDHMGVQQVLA
UniProt Q9JM99, residues 25-1054: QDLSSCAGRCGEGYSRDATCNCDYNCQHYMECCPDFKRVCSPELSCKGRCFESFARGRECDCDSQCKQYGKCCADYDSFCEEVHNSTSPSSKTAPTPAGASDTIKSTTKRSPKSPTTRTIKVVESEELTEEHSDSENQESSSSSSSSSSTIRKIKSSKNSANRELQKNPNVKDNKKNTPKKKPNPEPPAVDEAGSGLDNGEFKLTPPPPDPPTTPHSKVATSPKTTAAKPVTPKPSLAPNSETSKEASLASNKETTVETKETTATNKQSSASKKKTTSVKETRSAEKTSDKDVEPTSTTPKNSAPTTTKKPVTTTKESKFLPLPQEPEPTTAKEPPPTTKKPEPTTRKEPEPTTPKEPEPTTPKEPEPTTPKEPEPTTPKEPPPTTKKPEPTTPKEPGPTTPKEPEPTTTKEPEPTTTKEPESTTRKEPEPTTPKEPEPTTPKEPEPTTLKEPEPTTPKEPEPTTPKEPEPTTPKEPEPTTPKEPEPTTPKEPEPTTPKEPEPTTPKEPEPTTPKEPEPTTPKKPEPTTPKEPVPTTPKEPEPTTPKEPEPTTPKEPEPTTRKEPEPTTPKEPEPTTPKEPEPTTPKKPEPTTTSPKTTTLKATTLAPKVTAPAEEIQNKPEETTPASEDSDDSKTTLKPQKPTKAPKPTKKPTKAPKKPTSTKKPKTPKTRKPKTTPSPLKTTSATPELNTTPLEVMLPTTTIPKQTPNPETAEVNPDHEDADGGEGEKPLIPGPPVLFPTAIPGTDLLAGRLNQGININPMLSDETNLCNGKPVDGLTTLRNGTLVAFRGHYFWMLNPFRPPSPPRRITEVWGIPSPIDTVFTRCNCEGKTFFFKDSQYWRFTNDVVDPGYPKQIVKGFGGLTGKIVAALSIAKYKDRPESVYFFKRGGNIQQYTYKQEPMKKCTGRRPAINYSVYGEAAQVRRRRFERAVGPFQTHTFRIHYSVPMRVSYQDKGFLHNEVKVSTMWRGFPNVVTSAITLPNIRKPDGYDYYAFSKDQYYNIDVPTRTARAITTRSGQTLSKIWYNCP

Results are given in words; binding and its absence hold for the method and conditions named. In cells and extracts the contact can be indirect. Some entries that bind do so weakly or less than the wild type.

This experiment concerns the target Flag-tagged GPR146 (UniProt Q96CH1). The experiment can be described thus: co-IP.

As for “proteoglycan 4 (Prg4) (from UniProt Q9JM99 25-1054)”, the binding result is given as “binds”.
